These are yes or no findings as the source states them, for the method shown. Binding seen in cells or lysates may run through a third protein. Some entries that bind do so weakly or less than the wild type. Sequences can lack the tags named with a protein.

Sequences of proteins named here, by UniProt entry; tags and fusion partners are left off.
UniProt P24385: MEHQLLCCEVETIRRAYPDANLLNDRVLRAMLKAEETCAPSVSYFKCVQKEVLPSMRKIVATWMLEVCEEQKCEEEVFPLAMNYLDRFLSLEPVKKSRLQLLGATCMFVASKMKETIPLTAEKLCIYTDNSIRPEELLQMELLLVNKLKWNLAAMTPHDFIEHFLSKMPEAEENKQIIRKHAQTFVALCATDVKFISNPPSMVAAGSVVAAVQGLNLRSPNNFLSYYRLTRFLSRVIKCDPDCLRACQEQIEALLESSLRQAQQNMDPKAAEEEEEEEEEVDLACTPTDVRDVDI

This experiment addresses T1, GFP-tagged SMYD3 (UniProt Q9H7B4).
T1 sequence: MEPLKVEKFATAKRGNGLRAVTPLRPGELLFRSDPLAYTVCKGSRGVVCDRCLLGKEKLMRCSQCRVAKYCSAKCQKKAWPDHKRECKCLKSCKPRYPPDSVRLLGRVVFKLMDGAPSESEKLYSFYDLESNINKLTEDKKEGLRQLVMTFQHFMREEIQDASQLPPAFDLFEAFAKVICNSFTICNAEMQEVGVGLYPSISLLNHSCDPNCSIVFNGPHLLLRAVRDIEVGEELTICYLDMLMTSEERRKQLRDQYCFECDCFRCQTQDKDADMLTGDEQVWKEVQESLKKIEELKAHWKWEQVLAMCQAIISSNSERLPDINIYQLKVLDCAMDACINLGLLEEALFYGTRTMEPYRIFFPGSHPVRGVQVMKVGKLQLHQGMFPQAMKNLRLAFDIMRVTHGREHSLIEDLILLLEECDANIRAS
In words: co-IP; D425 cell lysates (400 µg) from GFP alone and GFP-tagged SMYD3 overexpressing cells bound to GFP-Trap agarose beads; immunoblot for GFP, SMYD3 and cyclin D1. A general note: A western blot detects proteins with antibodies after separation by electrophoresis.

For the substance cyclin D1 (from UniProt P24385 1-295), the binding entry is given as “binds”.

The values above are taken from paper PMC8997160.
